This is an account of results in patent CN107674122A.

By UniProt entry, the sequences of proteins in these tests, tags left out. Residues count along the entry.
UniProt P35747, residues 25-607: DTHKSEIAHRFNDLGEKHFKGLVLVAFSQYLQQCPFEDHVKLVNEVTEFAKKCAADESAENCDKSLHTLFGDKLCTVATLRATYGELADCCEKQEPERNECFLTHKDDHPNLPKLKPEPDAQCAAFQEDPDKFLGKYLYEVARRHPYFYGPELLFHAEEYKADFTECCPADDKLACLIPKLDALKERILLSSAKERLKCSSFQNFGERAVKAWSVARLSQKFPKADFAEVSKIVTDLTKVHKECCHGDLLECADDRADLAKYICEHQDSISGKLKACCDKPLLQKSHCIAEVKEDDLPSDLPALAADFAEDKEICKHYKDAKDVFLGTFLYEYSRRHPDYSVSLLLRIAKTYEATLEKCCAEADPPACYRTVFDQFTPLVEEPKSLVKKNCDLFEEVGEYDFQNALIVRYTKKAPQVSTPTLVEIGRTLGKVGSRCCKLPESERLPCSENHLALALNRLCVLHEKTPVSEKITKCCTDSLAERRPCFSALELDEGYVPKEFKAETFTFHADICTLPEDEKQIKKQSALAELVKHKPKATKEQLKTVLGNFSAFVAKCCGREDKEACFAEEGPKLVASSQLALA

No constants are given. Whether binding was seen depends on the method and setting. Some entries that bind do so weakly or less than the wild type. Tags and fused reporters may be left off the sequences shown.

In this test the target is 马血清(含马血清白蛋白) (horse serum, containing horse serum albumin) (horse) (UniProt P35747). The test can be described thus: ELISA, horse serum coated, A650. Background: In an ELISA, binding on a coated surface is turned into a signal by an enzyme label.

B1: 融合蛋白HF11-FC (expressed from pcDNA3.1 in 293F cells) (Fc fusion, not shown: a dimerising Fc or GST; small tags and cut ends)
chain: QVQLLESGGGLVQPGGSLRLSCAASGVKISYESMAWVRQAPGKGLEWVSSILMQNGSTYYADSVKGRFTISRDNSKNTLYLQMNSLRAEDTAVYYCATTRVRRPANMKYWGQGTLVTVSS
Regarding B1, the binding entry was “binds”.
